Reference: the supplement of paper PMC12873370
Values joined by “and” are separate entries in the source; they are usually repeats but may differ in a detail not shown here. Identical values can stand only once. Some of the results follow. Single values are uncertain, as repeats are few or missing.

Key:
[1] = test system: MEPP (mouse ovarian epithelium Trp53/Pten KO); experiment: cell viability relative to untreated (fraction); higher = less growth inhibition; conditions: 5 µM; 3 days
[2] = test system: PREPP (mouse prostate epithelium Trp53/Pten KO); experiment: as above; conditions: 5 µM; 3 days

Row | SMILES | cell viability [1] | cell viability [2]
1 | Clc1ccc(NN=C(c2ccccc2)c2ccccn2)nc1 | 0.641 | 0.565
2 | CCS(=O)(=O)N1CCC([C@@H](C)n2c(C)c(C(=O)NCc3c(OC)cc(C)[nH]c3=O)c3ccccc32)CC1 | 0.979 | 0.814
3 | Cc1nc(Nc2cnn(C3CCNCC3)c2)nc2c1N(C)C(=O)c1cc3ccccc3cc1N2C | 0.983 | 0.838
4 | Cc1cc(C)cc(C(=O)NOCCCCCC(=O)NO)c1 | 0.539 | 0.566
5 | COc1cc2ncnc(Nc3ccc(O)cc3)c2cc1OC | 0.932 | 0.843
6 | Cc1cc(Nc2cc(N3CCN(C)CC3)nc(Sc3ccc(NC(=O)C4CC4)cc3)n2)n[nH]1 | 0.642 | 0.68
7 | O=C(Nc1cccc(Cl)c1)Nc1ncc(CCNc2ncnc3ccsc23)s1 | 0.798 | 0.554
8 | COc1cc(-c2cn(C)c(=O)c3cnccc23)cc(OC)c1CN(C)C | 0.882 | 1.01
9 | Cn1c2ccccc2c2c3c(c4c5ccccc5n(CCC#N)c4c21)CNC3=O | 0.572 | 0.836
10 | CCS(=O)(=O)N1CCN(c2ccc(Nc3ncc(C(N)=O)c(NC4CC4)n3)cc2)CC1 | 0.912 | 0.694
11 | COc1cc2c(NC3CCN(C(C)C)CC3)nc(C3CCCCC3)nc2cc1OCCCN1CCCC1 | 1.01 | 0.823
12 | O=c1ncccn1[C@@H]1O[C@H](CO)[C@@H](O)[C@H]1O | 0.938 | 0.936
13 | CCCCN(Cc1ccc(C(=O)NO)cc1)C(=O)Nc1ccccc1 | 0.869 | 0.8
14 | CCC(C)SSc1ncc[nH]1 (stereo unspecified) | 0.585 | 0.823
15 | NC(N)=N/N=C/c1ccccc1Cl | 1.1 | 0.877
16 | COc1cc2c(NC3CCN(C4CCCCC4)CC3)nc(N3CCCN(C(C)C)CC3)nc2cc1OCCCN1CCCCC1 | 0.765 | 0.802
17 | O=C(Nc1ccc(-c2ccnc(Nc3ccc(N4CCOCC4)cc3)n2)cc1)C1CCCN1 (stereo unspecified) | 0.926 | 0.699
18 | CC(C)c1cc(CNc2nc(Nc3cc(C4CC4)[nH]n3)cc(N3CCN(C)CC3)n2)on1 | 0.299 | 0.583
19 | CC(C)OC(=O)CCC/C=C\C[C@@H]1[C@@H](CC[C@@H](O)CCc2ccccc2)[C@H](O)C[C@@H]1O | 0.993 | 0.94

Row | SMILES | cell viability [1] | cell viability [2]
20 | Cn1cc(CNCC2CCN(c3ncc(C(=O)NO)cn3)CC2)c2ccccc21 | 0.509 | 0.751
21 | Fc1cc(-c2cccc3ncc(-c4cnn(C5CCNCC5)c4)nc23)cc(F)c1CN1CCOCC1 | 0.863 and 0.733 | 0.791 and 0.718
22 | COc1cc2c(NC3CCN(C)CC3)nc(N3CCCN(C)CC3)nc2cc1OCCCN(C)C | 0.78 | 0.849
23 | Nc1ccccc1NC(=O)c1ccc(CNC(=O)OCc2cccnc2)cc1 | 0.692 | 0.62
24 | Cc1cc(Nc2ccc(NC(=O)c3ccc(Nc4ccnc5ccccc45)cc3)cc2)nc(N)n1 | 1.02 | 1.04
25 | COc1ccccc1C(=O)Nc1cc2c(cc1N1CCCCC1)n(C)c(=O)n2C | 1.03 | 0.844
26 | COc1cc2c(NC3CCN(CC4CCCCC4)CC3)nc(N3CCCN(C(C)C)CC3)nc2cc1OCCCN1CCCCC1 | 0.797 | 0.835
27 | Cn1ncnc1[C@@H]1c2n[nH]c(=O)c3cc(F)cc(c23)N[C@H]1c1ccc(F)cc1 | 1.16 | 0.835
28 | CN(C)Cc1ccc(-c2nc3cccc4c3n2CCNC4=O)cc1 | 0.955 | 0.926
29 | O=C(/C=C/N1C[C@H]2C[C@@H]1CN2c1ccccn1)c1ccccc1O | 1.18 | 1.08
30 | Cc1cc(-c2nc(-c3ccc(OC(F)(F)F)cc3)no2)nn1Cc1ccnc(N2CCN(C3CC3)CC2)c1 | 1.04 | 1.1
31 | CCN(c1cc(-c2ccc(CN3CCOCC3)cc2)cc(C(=O)NCc2c(C)cc(C)[nH]c2=O)c1C)C1CCOCC1 | 0.902 | 0.925
32 | CC(NC(=O)c1ccccc1/N=C/c1c(O)ccc2ccccc12)c1ccccc1 (stereo unspecified) | 0.825 | 0.834
33 | O=C(Nc1nc2cccc(-c3ccc(CN4CCS(=O)(=O)CC4)cc3)n2n1)C1CC1 | 0.843 | 0.746
34 | COc1cc2nc(N3CCCN(C)CC3)nc(NC3CCN(Cc4ccccc4)CC3)c2cc1OC | 0.882 | 0.884
35 | O=C(NCc1ccncc1)C12CC3CC(C1)CC(c1ccc(Cl)cc1)(C3)C2 | 0.934 | 0.919
36 | CO[C@@H]1[C@H](N(C)C(=O)c2ccccc2)C[C@H]2O[C@]1(C)n1c3ccccc3c3c4c(c5c6ccccc6n2c5c31)C(=O)NC4 | 0.538 | 0.471
37 | C[C@H](NC(=O)/C(C#N)=C/c1cccc(Br)n1)c1ccccc1 | 0.896 | 0.874
38 | O=C(CCCCCCC(=O)NO)NO | 0.882 | 0.808
